# From article PMC6182141, “Lytic gene expression in the temperate bacteriophage GIL01 is activated by a phage-encoded LexA homologue”
# For some assays here: A negative result means that nothing was seen under these conditions. For some assays here: At least one verdict was read from the data and is not stated in words by the source. For some assays here: Tags and fusion partners may be left off the protein sequences shown. For some assays here: Weaker means in comparison with the reference protein, sequence or condition of that experiment. For some assays here: The exact form of at least one protein or probe is not confirmed.
# Key:
# [1] = biological target: T1, gp6 (Bacillus thuringiensis phage GIL01) (UniProt Q5ILC6); experiment: DNase I footprinting; details: gp6 0.3-1.35 uM, protects -35 region; recombinant protein; protein details: N-terminal His6 + thrombin site; label: 32P end label (bottom strand for footprint); probe letters rebuilt from the primers and the genome; part of a longer molecule
# T1 sequence: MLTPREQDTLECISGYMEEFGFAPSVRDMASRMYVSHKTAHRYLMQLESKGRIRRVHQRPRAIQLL
# [2] = biological target: T1, gp6 (Bacillus thuringiensis phage GIL01); experiment: EMSA; details: recombinant protein, protein details: N-terminal His6 + thrombin site, label: 32P end label (bottom strand for footprint), probe letters rebuilt from the primers and the genome, part of a longer molecule
# [3] = biological target: gp6 K38A (Bacillus thuringiensis phage GIL01) (UniProt Q5ILC6); experiment: EMSA; details: 0.15-2.4 uM; recombinant protein; residues 1-66; protein details: N-terminal His6 + thrombin site; label: 32P end label (bottom strand for footprint); probe letters rebuilt from the primers and the genome; part of a longer molecule
# LexA = experiment: SPR; details: SPR: 25 mM Tris-HCl pH 7.4, 140 mM NaCl, 5 mM EDTA, 2 mM DTT, 0.1 mg/ml BSA, 0.005% P20, 25 C, recombinant protein, protein details: N-terminal His6, label: 3'-biotin-TEG on S1 capture oligo
# LexA + gp7 = experiment: SPR; details: SPR: 25 mM Tris-HCl pH 7.4, 140 mM NaCl, 5 mM EDTA, 2 mM DTT, 0.1 mg/ml BSA, 0.005% P20, 25 C; recombinant protein; protein details: N-terminal His6,N-terminal His6; label: 3'-biotin-TEG on S1 capture oligo
# LexA + gp6 = experiment: SPR; details: saturating both, responses additive; SPR: 25 mM Tris-HCl pH 7.4, 140 mM NaCl, 5 mM EDTA, 2 mM DTT, 0.1 mg/ml BSA, 0.005% P20, 25 C; recombinant protein; protein details: N-terminal His6,N-terminal His6 + thrombin site; label: 3'-biotin-TEG on S1 capture oligo
# [4] = biological target: T1, gp6 (Bacillus thuringiensis phage GIL01); experiment: SPR; details: decreased stability; SPR: 25 mM Tris-HCl pH 7.4, 140 mM NaCl, 5 mM EDTA, 2 mM DTT, 0.1 mg/ml BSA, 0.005% P20, 25 C; recombinant protein; protein details: N-terminal His6 + thrombin site; label: 3'-biotin-TEG on S1 capture oligo
# [5] = biological target: T2, gp7 (Bacillus thuringiensis phage GIL01) (UniProt Q7WSG2); experiment: SPR; details: gp7 alone; SPR: 25 mM Tris-HCl pH 7.4, 140 mM NaCl, 5 mM EDTA, 2 mM DTT, 0.1 mg/ml BSA, 0.005% P20, 25 C; recombinant protein; protein details: N-terminal His6; label: 3'-biotin-TEG on S1 capture oligo
# T2 sequence: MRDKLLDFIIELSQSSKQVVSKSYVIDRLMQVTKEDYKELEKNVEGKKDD
Sequence,binding result (LexA),binding result (LexA + gp7),binding result [4],also measured
AGCATTAAGGAGACAAGCAAAACCGACATTACTTGAAACCATGAAGGCAATAGAGATTCTTGTTGAACAAGGAATAGTAGAAAAGGACTAGCAAAGTTGCTAGTCTTTTTTATTTGTCCAAAATGACACACGTGTGACGTTATGCGGAACACTCGTTCGTATTATAGTATACATATAGCGAACAAACATTCGATAAGGAGTGTGACAAAGTGGATGCTTTAACGGAACTAATCATAGCTAA (double strand) [AatII-HindIII P3 promoter fragment],–,–,–,binding result [1]: binds; binding result ([2]; gp6 0.15-2.4 uM): binds; binding result ([2]; gp6 0.3-1.35 uM): binds; binding result [3]: no binding
GTTACTACTCGAGCGCGTTATGCGGAACACTCGTTCGTATTATAGTATATAATACATATAGCGAACAAACATTCGATAAGGAG / CTCCTTATCGAATGTTTGTTCGCTATATGTATTATATACTATAATACGAACGAGTGTTCCGCATAACG [B23_5ex (5 nt inserted between boxes)],binds,binds,–,–
"GTTACTACTCGAGCGATTTGTCCAAAATGACACACGTGTGACGTTATGCGGAACACTCGTTCGTATTATAGTATACATATAGCGAACAAACATTCGATAAGGAG / CTCCTTATCGAATGTTTGTTCGCTATATGTATACTATAATACGAACGAGTGTTCCGCATAACGTCACACGTGTGTCATTTTGGACAAAT [B23_Lwt (-35, dinBox2, dinBox3)]",binds,–,–,binding result (LexA + gp6): binds
GTTACTACTCGAGCGATTTGTCCAAAATGACACACGTATGACGTTATGCGG / CCGCATAACGTCATACGTGTGTCATTTTGGACAAAT [B23_Sm3],–,–,binds more weakly,–
GTTACTACTCGAGCGCGTTATGCGGAACACTCGTTCGTATTATAGTATACATATAGCGAACAAACATTCGATAAGGAG / CTCCTTATCGAATGTTTGTTCGCTATATGTATACTATAATACGAACGAGTGTTCCGCATAACG [B23_wt],–,binds,–,"binding result (LexA; stable, concentration-dependent): binds; binding result [5]: no binding"
GTTACTACTCGAGCGATTTGTCCAAAATTACACACGTGTGACGTTATGCGG / CCGCATAACGTCACACGTGTGTAATTTTGGACAAAT [B23_Sm1],–,–,binds more weakly,–
GTTACTACTCGAGCGATTTGTCCAAAATGACCCACGTGTGACGTTATGCGG / CCGCATAACGTCACACGTGGGTCATTTTGGACAAAT [B23_Sm2],–,–,binds more weakly,–
GTTACTACTCGAGCGCGTTATGCGTAGCACTCGTGCGTATTATAGTATACATATAGCTAGCAAACATGCGATAAGGAG / CTCCTTATCGCATGTTTGCTAGCTATATGTATACTATAATACGCACGAGTGCTACGCATAACG [B23_ns (both LexA boxes mutated)],no binding,–,–,–
GTTACTACTCGAGCGCGTTATGCGGAACACTCGTTCGTATTATAGTATATCTATATATACATATAGCGAACAAACATTCGATAAGGAG / CTCCTTATCGAATGTTTGTTCGCTATATGTATTATAGATATACTATAATACGAACGAGTGTTCCGCATAACG [B23_10ex (10 nt inserted between boxes)],binds,binds,–,–
